Results published in article PMC5553161.

Legend:
[1] = biological target: T1, bridging integrator 1 (human (endogenous in Huh7)) (UniProt O00499); assay: proximity ligation; fixed, permeabilised Huh7 cells stably harboring SGRs; mouse anti-NS5A with rabbit anti-NAP1L1 or anti-Bin1; Duolink PLA probes, signals counted per cell
T1 sequence: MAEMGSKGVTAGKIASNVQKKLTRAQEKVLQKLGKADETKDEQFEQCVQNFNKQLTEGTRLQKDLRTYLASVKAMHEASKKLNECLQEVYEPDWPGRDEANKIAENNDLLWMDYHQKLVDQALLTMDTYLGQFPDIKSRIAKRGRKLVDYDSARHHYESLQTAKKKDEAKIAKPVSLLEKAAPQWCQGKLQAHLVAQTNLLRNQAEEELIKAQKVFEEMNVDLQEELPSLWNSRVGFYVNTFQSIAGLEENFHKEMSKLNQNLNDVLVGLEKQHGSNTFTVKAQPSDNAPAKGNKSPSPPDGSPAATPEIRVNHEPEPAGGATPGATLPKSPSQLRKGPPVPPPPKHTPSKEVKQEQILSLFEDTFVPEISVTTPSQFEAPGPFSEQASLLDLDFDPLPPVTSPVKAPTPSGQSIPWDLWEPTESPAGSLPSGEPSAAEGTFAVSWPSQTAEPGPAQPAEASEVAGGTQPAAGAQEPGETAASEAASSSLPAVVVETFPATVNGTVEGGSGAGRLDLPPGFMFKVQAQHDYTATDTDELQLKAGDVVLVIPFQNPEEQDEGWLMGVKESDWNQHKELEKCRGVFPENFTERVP

[2] = biological target: T2, nucleosome assembly protein 1-like protein 1 (human (endogenous in Huh7)) (UniProt P55209); assay: as above
T2 sequence: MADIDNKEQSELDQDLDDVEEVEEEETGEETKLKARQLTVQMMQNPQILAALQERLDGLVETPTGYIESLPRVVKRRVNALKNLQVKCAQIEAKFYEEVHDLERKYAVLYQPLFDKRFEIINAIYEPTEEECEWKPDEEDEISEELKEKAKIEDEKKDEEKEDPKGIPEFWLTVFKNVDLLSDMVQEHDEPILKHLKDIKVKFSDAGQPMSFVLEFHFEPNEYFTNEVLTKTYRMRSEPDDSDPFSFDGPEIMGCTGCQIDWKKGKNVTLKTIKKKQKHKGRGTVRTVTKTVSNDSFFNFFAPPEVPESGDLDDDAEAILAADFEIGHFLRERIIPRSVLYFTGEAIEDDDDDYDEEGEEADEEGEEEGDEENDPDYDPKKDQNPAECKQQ

[3] = biological target: T3, vesicle-associated membrane protein-associated protein A (human (endogenous in Huh7)) (UniProt Q9P0L0); assay: co-IP; lysates of Huh7 cells stably harboring wild-type, S225D or S225A SGRs immunoprecipitated with antibodies to NAP1L1, Bin1, VAP-A or VAP-B; Western blot for NS5A, quantified (n = 3)
T3 sequence: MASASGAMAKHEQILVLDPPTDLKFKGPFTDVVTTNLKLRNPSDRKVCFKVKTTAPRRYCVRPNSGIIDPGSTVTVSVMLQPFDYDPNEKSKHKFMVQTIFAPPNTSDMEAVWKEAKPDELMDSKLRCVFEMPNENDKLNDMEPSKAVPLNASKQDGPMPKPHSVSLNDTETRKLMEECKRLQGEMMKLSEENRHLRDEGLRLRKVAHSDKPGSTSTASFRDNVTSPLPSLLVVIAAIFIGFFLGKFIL

[4] = biological target: T1, bridging integrator 1 (human (endogenous in Huh7)); assay: as above
[5] = biological target: T2, nucleosome assembly protein 1-like protein 1 (human (endogenous in Huh7)); assay: as above

Measured: binding

One-Strep-tagged (OST) NS5A S225D of hepatitis C virus JFH-1 (genotype 2a)
binds: [1] | [2] | [3] | [4] | [5]

One-Strep-tagged (OST) wild-type NS5A of hepatitis C virus JFH-1 (genotype 2a)
binds: [1] | [2] | [3] | [4] | [5]

Results are given in words; binding and its absence hold for the method and conditions named. In cells and extracts the contact can be indirect. A result given as binding can be weak or reduced; the word gives no strength.
